The results in this text go back to paper PMC11414389.

Protein sequences, listed by entry. Tags and fused reporters are not part of them. Lines headed by an entry give the natural chain unless they say otherwise; changes in a name come on top.
UniProt Q16254: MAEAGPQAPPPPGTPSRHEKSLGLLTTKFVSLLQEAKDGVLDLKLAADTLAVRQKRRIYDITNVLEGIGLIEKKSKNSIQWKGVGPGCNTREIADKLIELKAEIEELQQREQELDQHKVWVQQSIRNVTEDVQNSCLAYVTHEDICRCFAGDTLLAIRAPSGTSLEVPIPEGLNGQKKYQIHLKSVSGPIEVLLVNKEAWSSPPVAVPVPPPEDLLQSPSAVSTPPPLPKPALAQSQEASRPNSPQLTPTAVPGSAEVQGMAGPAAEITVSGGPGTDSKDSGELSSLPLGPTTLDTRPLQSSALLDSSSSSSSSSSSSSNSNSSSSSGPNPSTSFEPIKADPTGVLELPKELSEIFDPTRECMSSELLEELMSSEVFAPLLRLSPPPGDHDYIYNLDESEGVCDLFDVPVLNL

This assay addresses T1, nucleobindin 2 (NUCB2) (human (endogenous in SNU449 and Huh-7)) (UniProt P80303).
T1 sequence: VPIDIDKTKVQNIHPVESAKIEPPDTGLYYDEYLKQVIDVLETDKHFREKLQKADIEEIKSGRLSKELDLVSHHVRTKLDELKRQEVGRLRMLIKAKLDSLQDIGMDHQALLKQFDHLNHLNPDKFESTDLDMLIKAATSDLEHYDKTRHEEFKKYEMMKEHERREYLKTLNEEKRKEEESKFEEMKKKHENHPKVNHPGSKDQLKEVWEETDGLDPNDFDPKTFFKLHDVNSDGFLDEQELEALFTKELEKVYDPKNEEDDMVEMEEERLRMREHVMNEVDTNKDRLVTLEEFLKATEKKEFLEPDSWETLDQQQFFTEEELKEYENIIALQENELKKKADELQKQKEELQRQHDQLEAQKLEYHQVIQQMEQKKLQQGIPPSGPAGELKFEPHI
The assay is described as follows: co-IP; SNU449 and Huh-7 cell lysates immunoprecipitated with control IgG or anti-E2F4 or NUCB2 antibodies; immunoprecipitates detected by blotting with the indicated antibodies; endogenous proteins.

These are yes or no findings as the source states them, for the method shown. In cells and extracts the contact can be indirect. Some entries that bind do so weakly or less than the wild type.

As for “E2F transcription factor 4 (E2F4) (from UniProt Q16254 1-413)”, the binding entry is reported as “binds”.
